{"source": "patent US8563027B2", "about": "“Drug delivery through hydrogel plugs” (Incept, LLC, priority 2009, dated 2013)", "origin": "cited, not measured here", "system": "S. aureus", "settings": "cited from earlier work", "note": "For at least one compound, name, drawing or mass did not settle the structure."}
{"smiles": "COc1c(N2C[C@@H]3CCCN[C@@H]3C2)c(F)cc2c(=O)c(C(=O)O)cn(C3CC3)c12", "note": "[Moxifloxacin]", "values": [{"measurement": "MIC90", "value": 0.06, "unit": "mg/L"}]}
